In brackets after ≈: the same amount, converted by molar mass.

The text below walks through data of ChEMBL document CHEMBL3085692, “Violapyrones A-G, α-pyrone derivatives from Streptomyces violascens isolated from Hylobates hoolock feces” (J Nat Prod, 2013).

The test system of this experiment is Candida albicans. Kind of experiment: Antimicrobial activity against Candida albicans ATCC 10231 by micro broth dilution method. Format: functional. The essentials:
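Endpoint is the minimal inhibitory concentration (MIC), reported as the mean of three independent experiments. Reference drugs were ciprofloxacin for the bacteria and amphotericin B for the fungi. E. coli ATCC 25922 and P. aeruginosa ATCC 27853 were tested in a panel with B. subtilis ATCC 6633 and S. aureus ATCC 25923.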
In general terms: In broth dilution the organism is exposed to a series of concentrations in liquid medium.

For `C[C@@H]1[C@H](O)[C@@H](C)/C=C/C=C/C=C/C=C/C=C/C=C/C=C/[C@H](O[C@@H]2O[C@H](C)[C@@H](O)[C@H](N)[C@@H]2O)C[C@@H]2O[C@](O)(C[C@@H](O)C[C@@H](O)[C@H](O)CC[C@@H](O)C[C@@H](O)CC(=O)O[C@H]1C)C[C@H](O)[C@H]2C(=O)O` [AMPHOTERICIN B], the MIC (as a rule, the lowest concentration found to suppress growth) is 0.5 µg/mL (≈ 0.541 µM).
